This note sets out measurements from patent publication US20060199770A1 (priority 2003, published 2006).

Where no end group is shown, it is not given here.

A short description of the data set: peptide synthesis. The note with it: conjugation step.

In the case of Ac-CGSGVRGDFGSLAPRVARQL, the conjugation yield was 79%.
